## Library screen at single concentrations

By UniProt entry, the sequences of proteins in these tests, tags left out. Residues count along the entry.
UniProt Q4DA54, 1-478: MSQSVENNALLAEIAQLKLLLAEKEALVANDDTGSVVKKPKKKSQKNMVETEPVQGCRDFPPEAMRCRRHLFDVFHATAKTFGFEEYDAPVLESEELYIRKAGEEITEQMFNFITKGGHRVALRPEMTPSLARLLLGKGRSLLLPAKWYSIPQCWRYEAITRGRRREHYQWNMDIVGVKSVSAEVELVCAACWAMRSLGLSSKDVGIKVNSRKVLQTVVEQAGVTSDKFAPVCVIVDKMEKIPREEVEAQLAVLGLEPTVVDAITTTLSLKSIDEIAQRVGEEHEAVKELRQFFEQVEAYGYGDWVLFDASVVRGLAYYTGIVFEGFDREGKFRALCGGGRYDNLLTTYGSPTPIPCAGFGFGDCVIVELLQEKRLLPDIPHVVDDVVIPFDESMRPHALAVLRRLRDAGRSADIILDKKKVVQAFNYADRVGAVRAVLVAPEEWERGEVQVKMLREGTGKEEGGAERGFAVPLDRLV
UniProt A4I591, 1-473: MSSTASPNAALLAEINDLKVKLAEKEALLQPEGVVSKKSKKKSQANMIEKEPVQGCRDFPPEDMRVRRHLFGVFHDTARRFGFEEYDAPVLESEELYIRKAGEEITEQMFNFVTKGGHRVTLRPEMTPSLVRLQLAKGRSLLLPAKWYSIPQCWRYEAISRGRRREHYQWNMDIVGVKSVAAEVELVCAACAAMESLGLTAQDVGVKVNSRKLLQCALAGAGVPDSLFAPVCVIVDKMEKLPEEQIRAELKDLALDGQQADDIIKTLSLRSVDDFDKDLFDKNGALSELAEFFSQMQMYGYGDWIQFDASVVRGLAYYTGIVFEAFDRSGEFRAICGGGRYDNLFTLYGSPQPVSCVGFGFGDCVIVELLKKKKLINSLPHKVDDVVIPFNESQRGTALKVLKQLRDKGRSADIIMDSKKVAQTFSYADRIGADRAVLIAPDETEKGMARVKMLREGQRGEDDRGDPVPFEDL

A: 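Whole-parasite assay of Trypanosoma brucei over 72 hours; the read-out is not stated. Concentration: 30 µM. The record gives no direction; compounds that gave an IC50 in retests scored well above the rest, so higher reads as stronger inhibition. Values scatter widely below zero; nearly all retest evidence comes from the higher of the two concentrations used. Size under these conditions: about 64,000 compounds, about 940 of them at 50% or above in at least one test.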
B: 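Enzyme assay of histidyl-tRNA synthetase; the read-out is not stated. Target: Histidine-tRNA ligase, Trypanosoma cruzi CL Brener (UniProt Q4DA54). Tested at 30 µM. Higher reads as stronger inhibition (inferred: compounds with an IC50 in retests scored well above the rest). About 69,000 compounds were tested under these conditions; 0.045% (about 31) showed 50% or more at least once.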
C: 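Histidine-tRNA ligase, Leishmania infantum (UniProt A4I591). Enzyme assay of histidyl-tRNA synthetase; the read-out is not stated. Tested at 30 µM. Direction is inferred from retests: higher values go with stronger inhibition. The assay is labelled LdHisRS but filed under L. infantum. About 69,000 compounds were tested under these conditions; 0.6% (about 410) showed 50% or more at least once.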

Results are given as percent effect.
How 0% and 100% were set is not recorded. Most values in the screen are low, and negative values occur.
The compounds are a random part of those screened.

- CS(=O)(=O)c1nnc(NC(=O)CCc2cc(F)ccc2F)[nH]1 : A: -13.16%; B: -0.9804%; C: 12.8%
- CCC(C)(NCC(N)=O)c1nccs1 (configuration not stated) : A: -20.37%; B: 1.064%; C: 6.25%
- O=C(C1=CCCC1)N1CC[C@]2(C[C@H](OCc3cccnc3)CO2)C1 : B: 2.488%; C: 22.22%
- c1ccc(CC2CCN(Cc3ccnc(-c4cccnc4)n3)CC2)cc1 : B: 11.35%; C: 13.89%
- O=C1[C@@H]2CN(c3ncc(Cl)cc3F)C[C@]2(C(=O)O)CN1CC1CC1 : B: 7.2%; C: 18.03%
- Cc1ccc(N2CC[C@H](OCC3CC3)[C@@H]2Cc2ccncc2)nn1 : A: 7.428%; B: 7.263%; C: 21.15%
- Cc1cccc(C)c1CN1C(=O)CC2(CCSC2)C1=O (configuration not stated) : A: -8.935%; B: -1.01%; C: 17.46%
- CC(C)N(C)[C@@H]1CCN(c2ncccn2)[C@H]1Cc1ccncc1.O=C(O)C(F)(F)F.O=C(O)C(F)(F)F : A: 3.364%
- Cc1nc2n(n1)CC(Nc1ccnc(-c3ccccc3)n1)CC2 (configuration not stated) : A: -18.87%; B: 3.509%; C: 21.43%
- CCCS(=O)(=O)N1CCC2(CC1)COCCN(C(C)=O)C2 : A: -49.73%; B: 3.797%; C: 17.24%
- CN1CCC(c2n[nH]cc2-c2ccnc(N)c2)C1 (configuration not stated) : A: -5.978%; B: 1.515%; C: 11.59%
- CCCc1nnc2sc(C3CCN(C4CCN(C)CC4)CC3)nn12 : A: -5.462%; B: -29.35%; C: -53.15%
- CC(=O)c1ccc(C(=O)N2C[C@@H](CN3CCCC3)[C@@H](CO)C2)cc1 : A: 1.747%; B: -1.117%; C: 14.58%
- Cc1ccc2c(n1)N(C)CCN(C(=O)NC(C)C)C2.O=C(O)C(F)(F)F : A: -5.45%
- c1ccc(Cn2cncn2)c(CNCC2CNc3ccnn3C2)c1 (configuration not stated) : A: 27.64%; B: 4.58%; C: 27.4%
- Cc1ccc(C2(O)CCN(C(=O)c3cccc(S(C)(=O)=O)c3)CC2)nc1 : A: 5.199%; B: 2.97%; C: 20.65%
- Cc1nc2c(c(C)c1CC(=O)NC(C)c1ccccc1)c(=O)[nH]n2C (configuration not stated) : A: -37.62%; B: 10.12%; C: 9.677%
- Cc1ccc(O)c(C(=O)N2CCC(CNC(=O)OC(C)(C)C)C2)c1 (configuration not stated) : A: -15.09%; B: 4.255%; C: 12.5%
- O=C(CCc1cc(Cl)no1)N1CCC(c2cc3ncccc3cn2)CC1 : A: 11.89%; B: 6.716%; C: 15.79%
- c1ccc(COC[C@H]2CC[C@H]3[C@H](CCN3Cc3ccco3)O2)nc1 : B: 9.045%; C: 7.447%
- COCCC(=O)N1C[C@@H](O)[C@H](N2CCN(c3ccccc3)CC2)C1 : A: -14%; B: 7.576%; C: 15.49%
- CN(C)[C@@H]1CCN(c2ncccn2)[C@H]1Cc1ccncc1.O=C(O)C(F)(F)F.O=C(O)C(F)(F)F : A: 0.4333%
- CC(=O)N1CCc2nc(-c3ccccc3)nc(NC(C)C)c2CC1 : A: -77.75%; B: 6.349%; C: 6.364%
- CCCS(=O)(=O)N1CCC2(CC1)CC(=O)N(Cc1cc(F)cc(F)c1)C2 : A: -14.91%; B: 3.518%; C: 13.48%
- O=C(O)C(F)(F)F.[H][C@@]12OCCN(CC3CCOCC3)[C@@]1([H])CC[C@H]2OC : A: 26.81%
- CN(C)Cc1nn(C)c2c1CN(C(=O)c1ccc[nH]1)C2 : B: 6.952%; C: 23.08%
- Fc1cccc(CN2CCOC3(COCCN(CC4CC4)C3)C2)c1 (configuration not stated) : B: 7.407%; C: 15.45%
- Cc1cccc(C(Nc2nccc(-c3ccc(C)nc3C)n2)C2CC2)n1 (configuration not stated) : A: -77.23%; B: 6.438%; C: 8.197%
- [H][C@@]12CNC[C@]1([H])[C@H]2C(=O)N1CCC(Sc2ccccc2C)CC1 : A: 52.77%
- COCC(O)CN(C)C(=O)NCc1ccc(-c2ccn[nH]2)cc1 (configuration not stated) : A: -19.04%; B: 5.521%; C: 7.407%
- Cl.OC1CCN(Cc2c(C3CCCNC3)[nH]c3ncccc23)CC1 (configuration not stated) : A: 6.828%

Some entries from above, unchanged:

{"smiles": "CN1CCC(c2n[nH]cc2-c2ccnc(N)c2)C1", "stereo": "configuration not stated", "A": -5.978, "B": 1.515, "C": 11.59}
{"smiles": "Cc1cccc(C(Nc2nccc(-c3ccc(C)nc3C)n2)C2CC2)n1", "stereo": "configuration not stated", "A": -77.23, "B": 6.438, "C": 8.197}

Measurements from “University of Dundee, Small-Polar-MMV Screening Library” (2021), ChEMBL document CHEMBL3988442.